The other results are listed elsewhere or left out.
Key:
Assay in all cases: log2 fold change, soluble protein after heating vs DMSO (PISA); higher = thermal stabilisation; K562 cells, 10 uM, 30 min; active = over 0.2 and 3.5 SD of the protein, either way, in both replicates (recomputed)
saracatinib = compound: CN1CCN(CCOc2cc(OC3CCOCC3)c3c(Nc4c(Cl)ccc5c4OCO5)ncnc3c2)CC1 [saracatinib]
Summary of the method: (§1)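 Values are thermal stability changes relative to control samples and are taken from duplicates. They are stated as log2 fold changes. Before quantification by TMTpro 16plex LC-MS/MS with equalised channel sums, K562 cells at 2×10^6 cells/mL were treated with 10 μM compound for 30 min, heated in aliquots for 3 min across 48°C-58°C, pooled, extracted in PBS with 0.5% NP-40 at 4°C, and centrifuged at 21,000xg for 90 min to give the soluble supernatant.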

Protein sequences, listed by entry. Tags and fused reporters are not part of them. Lines headed by an entry give the natural chain unless they say otherwise; changes in a name come on top.
UniProt Q9Y3B4: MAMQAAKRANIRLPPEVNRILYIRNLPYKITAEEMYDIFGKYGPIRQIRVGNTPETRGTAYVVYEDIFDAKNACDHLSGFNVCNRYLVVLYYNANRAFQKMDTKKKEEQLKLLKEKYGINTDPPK
UniProt Q9HAT2: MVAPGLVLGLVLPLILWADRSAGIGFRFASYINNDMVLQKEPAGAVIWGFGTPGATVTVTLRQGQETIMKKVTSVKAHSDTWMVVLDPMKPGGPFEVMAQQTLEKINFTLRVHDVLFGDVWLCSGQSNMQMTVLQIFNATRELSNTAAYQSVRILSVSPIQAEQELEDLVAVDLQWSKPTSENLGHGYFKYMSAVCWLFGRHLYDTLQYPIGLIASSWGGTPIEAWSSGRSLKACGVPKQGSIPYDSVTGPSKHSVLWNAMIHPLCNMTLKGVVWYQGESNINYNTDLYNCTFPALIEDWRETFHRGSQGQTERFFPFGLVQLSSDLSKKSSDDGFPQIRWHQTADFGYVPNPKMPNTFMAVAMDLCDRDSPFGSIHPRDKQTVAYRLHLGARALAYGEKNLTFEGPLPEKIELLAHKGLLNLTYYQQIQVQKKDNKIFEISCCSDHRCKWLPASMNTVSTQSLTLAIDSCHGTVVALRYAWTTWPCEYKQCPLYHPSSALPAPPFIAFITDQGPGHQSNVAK
UniProt Q9BWJ5: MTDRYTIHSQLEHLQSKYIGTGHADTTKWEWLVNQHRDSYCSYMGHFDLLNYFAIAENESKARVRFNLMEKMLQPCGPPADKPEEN
UniProt Q96BD8: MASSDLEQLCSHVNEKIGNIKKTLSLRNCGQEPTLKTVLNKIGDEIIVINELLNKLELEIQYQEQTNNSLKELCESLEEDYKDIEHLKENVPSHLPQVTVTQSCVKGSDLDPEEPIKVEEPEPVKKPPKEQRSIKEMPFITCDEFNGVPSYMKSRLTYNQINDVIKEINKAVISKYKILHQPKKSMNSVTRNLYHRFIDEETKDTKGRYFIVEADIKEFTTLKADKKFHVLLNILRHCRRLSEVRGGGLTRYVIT
UniProt Q9NR46: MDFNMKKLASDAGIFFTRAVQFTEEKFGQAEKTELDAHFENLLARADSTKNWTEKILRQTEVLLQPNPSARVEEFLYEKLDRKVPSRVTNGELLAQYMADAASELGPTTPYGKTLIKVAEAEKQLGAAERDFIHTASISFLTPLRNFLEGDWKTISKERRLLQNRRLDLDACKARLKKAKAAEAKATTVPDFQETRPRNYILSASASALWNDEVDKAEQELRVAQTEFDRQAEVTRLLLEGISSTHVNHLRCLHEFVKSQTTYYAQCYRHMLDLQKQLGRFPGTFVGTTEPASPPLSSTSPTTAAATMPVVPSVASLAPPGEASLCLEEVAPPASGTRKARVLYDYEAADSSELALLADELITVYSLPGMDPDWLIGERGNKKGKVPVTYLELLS
UniProt Q8N6T7, whole entry, looked up: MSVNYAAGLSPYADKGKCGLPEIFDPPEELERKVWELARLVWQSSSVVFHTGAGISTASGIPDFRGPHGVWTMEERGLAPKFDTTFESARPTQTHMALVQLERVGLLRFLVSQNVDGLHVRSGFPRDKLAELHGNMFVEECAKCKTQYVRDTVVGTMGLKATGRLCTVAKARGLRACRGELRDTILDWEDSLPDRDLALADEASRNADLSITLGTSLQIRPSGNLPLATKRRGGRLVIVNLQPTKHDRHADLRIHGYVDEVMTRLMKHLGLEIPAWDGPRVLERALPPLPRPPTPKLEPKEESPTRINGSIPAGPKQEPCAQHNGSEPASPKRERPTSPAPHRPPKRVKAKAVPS
UniProt P05543: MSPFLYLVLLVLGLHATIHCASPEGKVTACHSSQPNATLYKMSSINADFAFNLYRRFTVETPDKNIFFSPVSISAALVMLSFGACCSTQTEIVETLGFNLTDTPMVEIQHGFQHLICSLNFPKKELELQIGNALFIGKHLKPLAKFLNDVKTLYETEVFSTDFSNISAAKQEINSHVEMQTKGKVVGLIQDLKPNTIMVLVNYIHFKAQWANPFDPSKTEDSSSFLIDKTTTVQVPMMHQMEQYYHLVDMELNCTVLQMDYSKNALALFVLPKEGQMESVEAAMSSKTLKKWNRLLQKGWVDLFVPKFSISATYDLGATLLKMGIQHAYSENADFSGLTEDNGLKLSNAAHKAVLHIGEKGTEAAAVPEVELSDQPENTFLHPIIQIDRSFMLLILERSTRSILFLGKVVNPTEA
UniProt Q13796: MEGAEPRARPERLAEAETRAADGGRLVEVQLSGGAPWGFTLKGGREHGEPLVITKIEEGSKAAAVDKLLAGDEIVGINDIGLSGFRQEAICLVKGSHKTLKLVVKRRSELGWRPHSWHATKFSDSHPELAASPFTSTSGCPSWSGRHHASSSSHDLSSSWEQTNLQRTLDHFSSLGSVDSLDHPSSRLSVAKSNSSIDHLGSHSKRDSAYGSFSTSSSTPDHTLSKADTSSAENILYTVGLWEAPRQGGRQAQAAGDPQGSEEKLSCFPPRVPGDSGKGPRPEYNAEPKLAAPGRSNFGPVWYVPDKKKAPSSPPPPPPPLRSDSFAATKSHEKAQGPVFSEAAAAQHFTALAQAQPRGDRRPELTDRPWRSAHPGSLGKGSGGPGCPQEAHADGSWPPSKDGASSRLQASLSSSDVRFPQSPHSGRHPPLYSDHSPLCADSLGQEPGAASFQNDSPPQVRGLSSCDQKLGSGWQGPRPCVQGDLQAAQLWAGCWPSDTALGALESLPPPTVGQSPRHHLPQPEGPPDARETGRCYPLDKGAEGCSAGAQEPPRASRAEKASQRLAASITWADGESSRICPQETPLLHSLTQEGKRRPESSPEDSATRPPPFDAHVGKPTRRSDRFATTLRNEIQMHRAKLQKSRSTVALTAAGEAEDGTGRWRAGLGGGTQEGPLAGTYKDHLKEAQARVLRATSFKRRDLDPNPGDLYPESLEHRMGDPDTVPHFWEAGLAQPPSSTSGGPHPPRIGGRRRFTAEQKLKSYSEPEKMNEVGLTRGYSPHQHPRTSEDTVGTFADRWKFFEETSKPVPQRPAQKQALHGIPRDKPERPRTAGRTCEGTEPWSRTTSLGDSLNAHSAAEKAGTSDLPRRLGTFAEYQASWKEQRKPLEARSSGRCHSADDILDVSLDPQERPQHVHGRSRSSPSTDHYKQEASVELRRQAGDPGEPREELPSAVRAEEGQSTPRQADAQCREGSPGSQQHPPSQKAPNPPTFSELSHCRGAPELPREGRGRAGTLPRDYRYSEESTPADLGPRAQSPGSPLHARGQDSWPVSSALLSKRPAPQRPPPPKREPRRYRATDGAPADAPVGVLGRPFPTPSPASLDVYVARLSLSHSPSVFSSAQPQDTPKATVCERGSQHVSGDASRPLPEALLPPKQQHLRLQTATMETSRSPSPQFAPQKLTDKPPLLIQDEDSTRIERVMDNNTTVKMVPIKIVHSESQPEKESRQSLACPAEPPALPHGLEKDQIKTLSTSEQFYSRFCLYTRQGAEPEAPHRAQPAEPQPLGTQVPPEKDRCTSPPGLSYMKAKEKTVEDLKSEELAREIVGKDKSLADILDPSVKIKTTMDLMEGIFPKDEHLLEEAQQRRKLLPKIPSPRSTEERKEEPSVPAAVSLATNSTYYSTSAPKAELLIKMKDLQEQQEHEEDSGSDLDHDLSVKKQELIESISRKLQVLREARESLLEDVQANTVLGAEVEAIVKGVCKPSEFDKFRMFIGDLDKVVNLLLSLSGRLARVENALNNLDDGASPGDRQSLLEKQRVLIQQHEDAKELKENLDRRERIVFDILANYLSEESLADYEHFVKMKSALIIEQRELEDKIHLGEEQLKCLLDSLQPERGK
UniProt Q9ULL8: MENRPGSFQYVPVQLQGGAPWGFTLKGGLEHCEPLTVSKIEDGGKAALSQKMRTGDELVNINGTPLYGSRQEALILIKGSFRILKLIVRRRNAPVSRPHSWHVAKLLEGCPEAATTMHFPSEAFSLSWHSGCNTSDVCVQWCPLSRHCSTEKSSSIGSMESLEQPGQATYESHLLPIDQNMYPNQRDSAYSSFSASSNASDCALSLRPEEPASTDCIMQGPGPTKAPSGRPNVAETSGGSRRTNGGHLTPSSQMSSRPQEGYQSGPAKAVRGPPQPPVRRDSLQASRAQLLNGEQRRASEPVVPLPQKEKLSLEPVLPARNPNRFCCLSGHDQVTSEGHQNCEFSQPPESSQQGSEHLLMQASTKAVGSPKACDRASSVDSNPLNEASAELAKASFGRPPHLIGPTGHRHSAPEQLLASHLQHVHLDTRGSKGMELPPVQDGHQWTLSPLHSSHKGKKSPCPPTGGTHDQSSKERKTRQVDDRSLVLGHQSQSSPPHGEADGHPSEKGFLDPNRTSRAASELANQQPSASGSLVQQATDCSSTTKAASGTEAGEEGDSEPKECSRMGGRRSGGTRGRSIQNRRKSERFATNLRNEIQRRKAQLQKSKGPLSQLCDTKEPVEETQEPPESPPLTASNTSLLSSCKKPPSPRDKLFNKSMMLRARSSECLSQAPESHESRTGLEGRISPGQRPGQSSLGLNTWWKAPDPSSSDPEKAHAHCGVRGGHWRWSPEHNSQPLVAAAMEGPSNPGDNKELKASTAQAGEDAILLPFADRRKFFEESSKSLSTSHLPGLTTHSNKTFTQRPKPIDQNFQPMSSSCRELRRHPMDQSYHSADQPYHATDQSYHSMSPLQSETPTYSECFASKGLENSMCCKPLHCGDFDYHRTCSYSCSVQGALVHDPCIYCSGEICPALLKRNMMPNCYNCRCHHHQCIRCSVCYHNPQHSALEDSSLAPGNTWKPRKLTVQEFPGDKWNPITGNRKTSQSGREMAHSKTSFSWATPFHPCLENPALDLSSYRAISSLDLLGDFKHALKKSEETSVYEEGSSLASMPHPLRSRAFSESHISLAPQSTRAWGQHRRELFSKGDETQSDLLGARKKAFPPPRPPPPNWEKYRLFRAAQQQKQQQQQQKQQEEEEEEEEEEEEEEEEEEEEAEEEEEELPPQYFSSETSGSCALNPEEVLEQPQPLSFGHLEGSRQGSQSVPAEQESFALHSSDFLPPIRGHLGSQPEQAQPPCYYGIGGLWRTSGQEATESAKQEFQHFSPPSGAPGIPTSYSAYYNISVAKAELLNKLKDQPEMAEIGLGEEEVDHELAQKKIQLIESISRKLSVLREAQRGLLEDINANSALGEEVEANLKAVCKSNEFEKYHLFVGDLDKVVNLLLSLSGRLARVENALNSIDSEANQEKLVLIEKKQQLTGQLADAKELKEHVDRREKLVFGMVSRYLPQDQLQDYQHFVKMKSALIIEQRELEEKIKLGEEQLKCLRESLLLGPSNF
UniProt Q96EE3: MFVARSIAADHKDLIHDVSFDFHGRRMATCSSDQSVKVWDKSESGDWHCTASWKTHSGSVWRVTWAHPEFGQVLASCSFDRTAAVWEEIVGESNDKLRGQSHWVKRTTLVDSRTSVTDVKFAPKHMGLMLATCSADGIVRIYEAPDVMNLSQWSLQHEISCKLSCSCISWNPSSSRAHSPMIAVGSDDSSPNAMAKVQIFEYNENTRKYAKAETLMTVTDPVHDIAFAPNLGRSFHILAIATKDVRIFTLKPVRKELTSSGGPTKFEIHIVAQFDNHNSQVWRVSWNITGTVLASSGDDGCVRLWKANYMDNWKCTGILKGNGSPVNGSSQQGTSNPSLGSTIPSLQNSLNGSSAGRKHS
UniProt P62341, whole entry, looked up: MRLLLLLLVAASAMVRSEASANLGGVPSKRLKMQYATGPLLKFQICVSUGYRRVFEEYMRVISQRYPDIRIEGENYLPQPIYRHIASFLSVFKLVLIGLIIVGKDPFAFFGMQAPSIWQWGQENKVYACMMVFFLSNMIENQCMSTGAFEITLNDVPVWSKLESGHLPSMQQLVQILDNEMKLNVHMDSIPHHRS
UniProt Q8IZQ5, whole entry, looked up: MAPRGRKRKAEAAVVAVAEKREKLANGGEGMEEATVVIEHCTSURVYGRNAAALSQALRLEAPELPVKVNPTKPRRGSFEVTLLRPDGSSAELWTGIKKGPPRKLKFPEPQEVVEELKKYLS
UniProt Q9NP31, whole entry, looked up: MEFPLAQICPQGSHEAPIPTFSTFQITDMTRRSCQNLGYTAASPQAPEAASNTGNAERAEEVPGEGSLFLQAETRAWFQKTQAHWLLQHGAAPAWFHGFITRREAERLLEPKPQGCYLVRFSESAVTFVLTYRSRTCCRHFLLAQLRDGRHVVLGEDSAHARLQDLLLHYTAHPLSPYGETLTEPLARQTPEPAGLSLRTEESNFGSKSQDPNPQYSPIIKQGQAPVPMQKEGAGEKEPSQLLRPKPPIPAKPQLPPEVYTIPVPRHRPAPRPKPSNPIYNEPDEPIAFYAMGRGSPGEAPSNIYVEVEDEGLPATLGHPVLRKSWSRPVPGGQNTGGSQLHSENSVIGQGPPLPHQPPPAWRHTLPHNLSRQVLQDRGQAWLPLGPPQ
UniProt P60059: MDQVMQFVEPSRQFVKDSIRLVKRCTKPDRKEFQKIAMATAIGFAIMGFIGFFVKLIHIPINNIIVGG
UniProt P63208, whole entry, looked up: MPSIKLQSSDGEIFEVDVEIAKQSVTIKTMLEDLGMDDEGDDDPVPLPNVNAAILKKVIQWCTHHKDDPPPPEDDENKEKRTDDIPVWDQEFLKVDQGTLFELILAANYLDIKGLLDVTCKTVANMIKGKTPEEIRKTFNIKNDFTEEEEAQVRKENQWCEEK

sotrastaurin = compound: CN1CCN(c2nc(C3=C(c4c[nH]c5ccccc45)C(=O)NC3=O)c3ccccc3n2)CC1 [sotrastaurin]
Summary of the method: as §1

Tubastatin A = compound: CN1CCc2c(c3ccccc3n2Cc2ccc(C(=O)NO)cc2)C1 [Tubastatin A]
Summary of the method: as §1

[1] = compound: CNC(=O)C1=CC=CC=C1NC2=NC(=NC=C2Cl)NC3=C(C=C(C=C3)N4CCOCC4)OC
Summary of the method: as §1

defactinib = compound: CNC(=O)c1ccc(Nc2ncc(C(F)(F)F)c(NCc3nccnc3N(C)S(C)(=O)=O)n2)cc1 [defactinib]
Summary of the method: as §1

[2] = compound: CNc1nc(-c2ccc3c(N)n[nH]c3c2)cc(N2C[C@@H](C(=O)NC3CCCCC3)CC[C@H]2C)n1
Summary of the method: as §1

[3] = compound: COC(=O)[C@H](CCSC)NC(=O)C1=C(C=C(C=C1)NC[C@H](CS)N)C2=CC=CC=C2
Summary of the method: as §1

alvocidib = compound: CN1CC[C@H](c2c(O)cc(O)c3c(=O)cc(-c4ccccc4Cl)oc23)[C@H](O)C1 [alvocidib]
Summary of the method: as §1

rucaparib = compound: CNCc1ccc(-c2[nH]c3cc(F)cc4c3c2CCNC4=O)cc1 [rucaparib]
Summary of the method: as §1

encorafenib = compound: COC(=O)N[C@@H](C)CNc1nccc(-c2cn(C(C)C)nc2-c2cc(Cl)cc(NS(C)(=O)=O)c2F)n1 [encorafenib]
Summary of the method: as §1

Measured: log2 fold change

SEPTIN5 (UniProt G3XAH0)
inactive: saracatinib 0.045 | sotrastaurin 0.023 | Tubastatin A -0.038 | [1] 0.042 | defactinib -0.023 | [2] 0.032 | [3] 0.028

SF3B6 (UniProt Q9Y3B4)
inactive: saracatinib -0.036 | sotrastaurin 0 | alvocidib -0.046 | Tubastatin A 0.133 | [1] -0.035 | defactinib -0.09 | rucaparib 0.119 | [2] 0.008 | encorafenib 0.066 | [3] 0.043

SH3GL1 (UniProt Q99961)
inactive: saracatinib -0.157 | sotrastaurin -0.163 | Tubastatin A 0.092 | [1] -0.035 | defactinib -0.116 | rucaparib 0.022 | [2] 0.054 | encorafenib 0.062 | [3] -0.043

SIK3 (UniProt H0Y4E8)
inactive: saracatinib 0.027 | sotrastaurin 0.157 | Tubastatin A 0.064 | [1] -0.009 | defactinib -0.072 | rucaparib 0.023 | [2] -0.114 | encorafenib 0.056 | [3] 0.01

SESN2 (UniProt P58004)
inactive: saracatinib -0.009 | sotrastaurin -0.222 | Tubastatin A 0.131 | [1] 0.039 | defactinib -0.229 | rucaparib 0.044 | [2] 0.09 | encorafenib 0.041 | [3] -0.121

SFXN5 (UniProt Q8TD22)
inactive: saracatinib 0.106 | sotrastaurin -0.014 | Tubastatin A -0.053 | [1] 0.019 | defactinib 0.017 | rucaparib -0.043 | [2] -0.038 | encorafenib -0.053 | [3] 0.045

SIAE (UniProt Q9HAT2)
inactive: saracatinib -0.195 | sotrastaurin -0.248 | alvocidib 0.028 | Tubastatin A 0.004 | [1] -0.052 | defactinib 0 | [2] -0.086 | [3] 0.009

SF3B5 (UniProt Q9BWJ5)
inactive: saracatinib -0.382 | sotrastaurin 0.055 | Tubastatin A 0.048 | [1] 0.023 | defactinib -0.039 | rucaparib 0.086 | [2] -0.015 | encorafenib -0.025 | [3] 0.061

SKA1 (UniProt Q96BD8)
inactive: saracatinib -0.174 | sotrastaurin -0.154 | alvocidib 0.008 | defactinib -0.053 | rucaparib 0.489 | [2] -0.17 | encorafenib 0.253 | [3] -0.009

SH3GLB2 (UniProt Q9NR46)
inactive: saracatinib -0.059 | sotrastaurin -0.08 | Tubastatin A 0.024 | [1] -0.048 | defactinib -0.148 | rucaparib 0.042 | [2] -0.02 | encorafenib 0.029 | [3] -0.086

SETD3 (UniProt Q86TU7)
inactive: saracatinib 0.008 | sotrastaurin 0.012 | Tubastatin A -0.056 | [1] 0.014 | defactinib -0.004 | rucaparib 0.022 | [2] 0.032 | encorafenib -0.009 | [3] 0

SIRT6 (UniProt Q8N6T7)
inactive: saracatinib -0.071 | sotrastaurin -0.025 | alvocidib -0.017 | Tubastatin A 0.002 | [1] -0.026 | defactinib -0.07 | rucaparib 0.255 | [2] -0.033 | encorafenib -0.017 | [3] -0.036

SERPINA7 (UniProt P05543)
inactive: saracatinib 0.339 | sotrastaurin 0.395 | Tubastatin A -0.169 | [1] 0.147 | defactinib 0.056 | rucaparib -0.145 | [2] 0.061 | encorafenib -0.085 | [3] 0.078

SHROOM2 (UniProt Q13796)
inactive: saracatinib -0.118 | sotrastaurin 0.128 | Tubastatin A 0.283 | [1] -0.29 | defactinib 0.059 | rucaparib -0.049 | [2] 0.08 | encorafenib -0.136 | [3] 0.1

SENP6 (UniProt Q9GZR1)
inactive: saracatinib 0.028 | sotrastaurin -0.008 | Tubastatin A 0.063 | [1] -0.018 | defactinib -0.131 | rucaparib 0.003 | [2] -0.034 | encorafenib 0.016 | [3] 0

SERPINB5 (UniProt P36952)
inactive: saracatinib -0.079 | sotrastaurin 0.172 | Tubastatin A -0.607 | defactinib -0.154 | rucaparib -0.313 | [2] -0.109 | encorafenib -0.356 | [3] -0.582

SEPTIN5 (UniProt Q99719)
inactive: saracatinib 0.051 | sotrastaurin 0.001 | Tubastatin A -0.035 | [1] -0.022 | defactinib 0.008 | rucaparib -0.036 | [2] 0.003 | encorafenib -0.007 | [3] -0.006

SHROOM4 (UniProt Q9ULL8)
inactive: saracatinib -0.067 | alvocidib 0.475 | defactinib 0.504 | [2] -0.116 | [3] 0.104

3 entries picked at random from those above:
SERPINB5 (UniProt P36952)
inactive: saracatinib -0.079 | sotrastaurin 0.172 | Tubastatin A -0.607 | defactinib -0.154 | rucaparib -0.313 | [2] -0.109 | encorafenib -0.356 | [3] -0.582

SERPINA7 (UniProt P05543)
inactive: saracatinib 0.339 | sotrastaurin 0.395 | Tubastatin A -0.169 | [1] 0.147 | defactinib 0.056 | rucaparib -0.145 | [2] 0.061 | encorafenib -0.085 | [3] 0.078

SEPTIN5 (UniProt Q99719)
inactive: saracatinib 0.051 | sotrastaurin 0.001 | Tubastatin A -0.035 | [1] -0.022 | defactinib 0.008 | rucaparib -0.036 | [2] 0.003 | encorafenib -0.007 | [3] -0.006

Remaining list, next part:

SEH1L isoform 1 (UniProt Q96EE3)
inactive: saracatinib 0.009 | sotrastaurin -0.022 | Tubastatin A -0.015 | [1] -0.029 | defactinib -0.012 | rucaparib -0.016 | [2] -0.053 | encorafenib 0.025 | [3] -0.007

SH2D1B (UniProt O14796)
inactive: sotrastaurin 0.05 | Tubastatin A -0.046 | [1] -0.214 | defactinib -0.06 | rucaparib 0.045 | [2] -0.026 | encorafenib 0.295 | [3] 0.242
active: saracatinib -1

SELENOT (UniProt P62341)
inactive: saracatinib 0.107 | sotrastaurin -0.041 | Tubastatin A 0.041 | [1] 0.007 | defactinib -0.092 | rucaparib 0.023 | [2] 0.02 | encorafenib -0.016 | [3] 0.002

SERPINA12 (UniProt Q8IW75)
inactive: saracatinib -0.356 | sotrastaurin 0.183 | Tubastatin A -0.086 | defactinib 0.022 | rucaparib -0.123 | [2] 0.286 | encorafenib -0.231 | [3] -0.053

SERPING1 isoform 3 (UniProt P05155)
inactive: saracatinib 0.156 | alvocidib 0.077 | Tubastatin A -0.074 | [1] 0.032 | rucaparib -0.064 | [2] -0.016 | encorafenib -0.041

SELENOH (UniProt Q8IZQ5)
inactive: saracatinib 0.124 | sotrastaurin -0.171 | Tubastatin A 0.032 | [1] -0.063 | defactinib -0.026 | rucaparib -0.011 | [2] 0.022 | encorafenib 0.011 | [3] -0.038

SH3BGR (UniProt P55822)
inactive: saracatinib -0.076 | alvocidib -0.033 | [1] 0.129 | rucaparib 0.076 | [2] -0.028 | encorafenib -0.01

SHB (UniProt Q15464)
inactive: saracatinib -0.072 | sotrastaurin -0.072 | alvocidib -0.024 | Tubastatin A -0.013 | [2] -0.012

SH2D2A isoform 2 (UniProt Q9NP31)
inactive: saracatinib -0.033 | alvocidib -0.055 | [1] 0.021 | rucaparib -0.089 | [2] 0.015 | encorafenib -0.135

SIDT2 isoform 2 (UniProt Q8NBJ9)
inactive: saracatinib 0.08 | sotrastaurin 0.024 | Tubastatin A -0.083 | [1] 0.104 | defactinib -0.064 | rucaparib -0.002 | [2] -0.088 | encorafenib -0.053 | [3] -0.176

SEC61G (UniProt P60059)
inactive: saracatinib -0.045 | sotrastaurin -0.002 | [1] 0.173 | rucaparib -0.332 | [2] 0.068 | encorafenib 0.158

SIRT2 (UniProt Q8IXJ6)
inactive: saracatinib 0.031 | sotrastaurin 0.136 | Tubastatin A -0.015 | [1] -0.038 | defactinib -0.015 | rucaparib -0.033 | [2] 0.181 | encorafenib 0.014 | [3] 0.025

SF1 (UniProt H7C0N4)
inactive: saracatinib 0.165 | alvocidib 0.013 | Tubastatin A -0.035 | defactinib -0.056 | rucaparib 0.047 | [2] -0.018 | encorafenib -0.044 | [3] -0.039

SERINC1 (UniProt Q9NRX5)
inactive: saracatinib 0.093 | sotrastaurin -0.053 | Tubastatin A -0.128 | [1] -0.008 | defactinib 0.031 | rucaparib -0.095 | [2] -0.088 | encorafenib -0.062 | [3] 0.055

SKP1 (UniProt P63208)
inactive: saracatinib 0.157 | sotrastaurin -0.023 | Tubastatin A 0.002 | [1] 0.165 | defactinib 0.066 | rucaparib -0.051 | [2] 0.028 | encorafenib -0.005 | [3] 0.072
